Assay [1] deals with T1, FLOT2 (human (endogenous in HEK293)) (UniProt Q14254).
T1 sequence: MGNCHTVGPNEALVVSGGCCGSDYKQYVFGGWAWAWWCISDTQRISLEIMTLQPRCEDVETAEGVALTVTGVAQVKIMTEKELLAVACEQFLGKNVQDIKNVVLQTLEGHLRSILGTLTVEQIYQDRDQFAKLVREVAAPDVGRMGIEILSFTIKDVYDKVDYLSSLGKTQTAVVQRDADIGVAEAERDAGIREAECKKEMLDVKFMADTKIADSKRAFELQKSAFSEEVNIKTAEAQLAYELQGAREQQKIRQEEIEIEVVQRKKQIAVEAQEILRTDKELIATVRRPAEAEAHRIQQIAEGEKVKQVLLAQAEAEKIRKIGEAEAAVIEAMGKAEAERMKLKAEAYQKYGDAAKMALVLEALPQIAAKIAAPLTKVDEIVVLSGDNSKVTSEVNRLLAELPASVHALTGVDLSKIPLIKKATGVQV
In words: cross-linking; XL-MS: intact early endosomes purified by Endo-IP (FLAG-EEA1, HEK293EL, eluted without detergent) in KPBS, 1 mM DSSO, room temperature, 40 min; XlinkX, 5% FDR.

Protein sequences, listed by entry. Tags and fused reporters are not part of them.
UniProt O43747: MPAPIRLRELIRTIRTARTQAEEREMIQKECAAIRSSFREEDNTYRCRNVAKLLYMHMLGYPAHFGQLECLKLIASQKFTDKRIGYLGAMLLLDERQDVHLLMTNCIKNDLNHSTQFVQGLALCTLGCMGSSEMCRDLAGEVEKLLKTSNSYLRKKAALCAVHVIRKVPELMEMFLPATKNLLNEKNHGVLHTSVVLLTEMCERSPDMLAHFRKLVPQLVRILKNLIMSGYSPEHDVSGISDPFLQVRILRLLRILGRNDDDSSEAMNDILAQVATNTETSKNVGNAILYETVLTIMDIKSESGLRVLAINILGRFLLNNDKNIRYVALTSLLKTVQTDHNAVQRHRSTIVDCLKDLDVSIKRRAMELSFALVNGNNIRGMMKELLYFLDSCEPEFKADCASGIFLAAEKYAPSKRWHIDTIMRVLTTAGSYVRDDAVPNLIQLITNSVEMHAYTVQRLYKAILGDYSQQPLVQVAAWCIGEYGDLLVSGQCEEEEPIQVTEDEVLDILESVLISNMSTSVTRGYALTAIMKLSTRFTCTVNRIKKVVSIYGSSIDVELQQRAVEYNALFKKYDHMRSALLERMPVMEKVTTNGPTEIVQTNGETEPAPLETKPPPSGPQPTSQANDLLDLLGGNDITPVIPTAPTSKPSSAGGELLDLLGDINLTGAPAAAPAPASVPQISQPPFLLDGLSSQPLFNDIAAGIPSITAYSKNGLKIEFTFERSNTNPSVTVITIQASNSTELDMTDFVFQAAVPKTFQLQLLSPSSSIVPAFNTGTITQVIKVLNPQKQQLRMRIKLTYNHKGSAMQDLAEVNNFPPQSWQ

Assay [2] addresses T2, ATP11B (human (endogenous in HEK293 and in H9-derived iNeurons)) (UniProt Q9Y2G3).
T2 sequence: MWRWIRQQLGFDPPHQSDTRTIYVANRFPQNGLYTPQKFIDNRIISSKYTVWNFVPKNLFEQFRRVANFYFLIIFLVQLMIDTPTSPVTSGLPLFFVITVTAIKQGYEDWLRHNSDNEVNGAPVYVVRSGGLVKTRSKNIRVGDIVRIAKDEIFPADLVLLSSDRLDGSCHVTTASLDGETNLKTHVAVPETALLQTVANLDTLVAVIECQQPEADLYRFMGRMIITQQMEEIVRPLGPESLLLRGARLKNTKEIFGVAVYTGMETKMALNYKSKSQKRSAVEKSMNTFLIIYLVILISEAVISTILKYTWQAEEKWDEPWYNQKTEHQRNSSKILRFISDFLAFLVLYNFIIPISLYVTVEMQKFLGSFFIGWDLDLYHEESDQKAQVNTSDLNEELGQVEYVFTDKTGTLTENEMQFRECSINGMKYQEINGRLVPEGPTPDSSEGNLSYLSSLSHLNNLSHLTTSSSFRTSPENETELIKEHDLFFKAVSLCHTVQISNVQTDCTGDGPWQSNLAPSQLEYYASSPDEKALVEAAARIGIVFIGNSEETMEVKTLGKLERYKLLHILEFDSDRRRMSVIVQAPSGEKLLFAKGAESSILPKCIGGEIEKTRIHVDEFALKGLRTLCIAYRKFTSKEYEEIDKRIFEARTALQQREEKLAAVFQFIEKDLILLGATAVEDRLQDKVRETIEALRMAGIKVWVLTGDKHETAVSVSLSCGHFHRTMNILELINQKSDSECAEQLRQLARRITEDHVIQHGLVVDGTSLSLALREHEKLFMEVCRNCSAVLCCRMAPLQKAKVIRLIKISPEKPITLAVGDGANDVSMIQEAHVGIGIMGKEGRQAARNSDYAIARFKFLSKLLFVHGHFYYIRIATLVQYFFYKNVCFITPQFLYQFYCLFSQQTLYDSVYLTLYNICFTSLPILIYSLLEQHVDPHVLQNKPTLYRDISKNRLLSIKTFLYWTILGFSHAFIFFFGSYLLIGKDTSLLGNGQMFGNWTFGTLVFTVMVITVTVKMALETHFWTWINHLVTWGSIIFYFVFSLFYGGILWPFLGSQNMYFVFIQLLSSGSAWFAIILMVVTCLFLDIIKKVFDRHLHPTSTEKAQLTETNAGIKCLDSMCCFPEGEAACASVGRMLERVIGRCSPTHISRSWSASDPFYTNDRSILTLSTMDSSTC
The description is as above.

The target of assay [3] is T2, ATP11B (human (endogenous in HEK293 and in H9-derived iNeurons)). In words: native gel or EMSA; BN-MS: endosomal pellets (Endo-IP, HEK293EL) extracted with 0.5% DDM in KPBS, 4-16% NativePAGE at 4°C, 48 slices, DIA-MS; co-migration of elution profiles.
The target in assay [4] is T3, TMEM30A (human (endogenous in HEK293 and in H9-derived iNeurons)) (UniProt Q9NV96).
T3 sequence: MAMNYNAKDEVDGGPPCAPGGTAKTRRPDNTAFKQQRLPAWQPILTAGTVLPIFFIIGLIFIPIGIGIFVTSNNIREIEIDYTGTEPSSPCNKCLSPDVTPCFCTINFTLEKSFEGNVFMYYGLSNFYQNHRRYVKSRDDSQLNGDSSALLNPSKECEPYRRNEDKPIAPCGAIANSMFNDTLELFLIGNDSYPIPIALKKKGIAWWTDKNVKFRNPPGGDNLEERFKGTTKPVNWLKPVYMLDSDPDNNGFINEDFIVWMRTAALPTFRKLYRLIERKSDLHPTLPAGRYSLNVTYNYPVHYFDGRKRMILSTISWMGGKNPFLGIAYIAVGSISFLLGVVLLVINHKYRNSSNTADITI
The assay is described as above.

The target of assay [5] is T4, CLCN7 (human (endogenous in HEK293)) (UniProt P51798).
T4 sequence: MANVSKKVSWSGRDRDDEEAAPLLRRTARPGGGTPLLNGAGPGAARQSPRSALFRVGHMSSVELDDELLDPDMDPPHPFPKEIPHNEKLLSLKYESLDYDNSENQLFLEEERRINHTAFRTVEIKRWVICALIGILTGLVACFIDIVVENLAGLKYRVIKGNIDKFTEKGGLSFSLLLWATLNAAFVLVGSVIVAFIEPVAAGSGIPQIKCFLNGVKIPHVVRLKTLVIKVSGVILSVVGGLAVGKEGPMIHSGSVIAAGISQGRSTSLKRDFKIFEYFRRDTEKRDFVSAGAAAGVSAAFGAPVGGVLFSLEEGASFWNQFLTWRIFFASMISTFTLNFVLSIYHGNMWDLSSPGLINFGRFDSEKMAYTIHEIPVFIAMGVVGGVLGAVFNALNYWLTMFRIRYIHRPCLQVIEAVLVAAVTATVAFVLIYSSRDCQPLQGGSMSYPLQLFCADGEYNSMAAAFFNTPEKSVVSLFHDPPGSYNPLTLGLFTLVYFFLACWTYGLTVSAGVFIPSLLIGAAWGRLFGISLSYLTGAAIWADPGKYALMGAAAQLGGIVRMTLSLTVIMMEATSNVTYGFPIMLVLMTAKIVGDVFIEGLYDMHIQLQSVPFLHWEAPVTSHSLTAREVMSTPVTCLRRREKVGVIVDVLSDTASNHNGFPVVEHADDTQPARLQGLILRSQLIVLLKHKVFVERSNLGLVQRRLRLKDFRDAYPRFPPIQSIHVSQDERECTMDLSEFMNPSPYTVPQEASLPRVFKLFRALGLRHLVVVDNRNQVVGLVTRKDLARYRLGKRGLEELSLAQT
Briefly: cross-linking; XL-MS: intact early endosomes purified by Endo-IP (FLAG-EEA1, HEK293EL, eluted without detergent) in KPBS, 1 mM DSSO, room temperature, 40 min; XlinkX, 5% FDR.

The target of assay [6] is AP1G1 (human (endogenous in HEK293)) (UniProt O43747). The description is as above.
Assay [7] concerns the target T5, RMC1 (human (endogenous in HEK293)) (UniProt Q96DM3).
T5 sequence: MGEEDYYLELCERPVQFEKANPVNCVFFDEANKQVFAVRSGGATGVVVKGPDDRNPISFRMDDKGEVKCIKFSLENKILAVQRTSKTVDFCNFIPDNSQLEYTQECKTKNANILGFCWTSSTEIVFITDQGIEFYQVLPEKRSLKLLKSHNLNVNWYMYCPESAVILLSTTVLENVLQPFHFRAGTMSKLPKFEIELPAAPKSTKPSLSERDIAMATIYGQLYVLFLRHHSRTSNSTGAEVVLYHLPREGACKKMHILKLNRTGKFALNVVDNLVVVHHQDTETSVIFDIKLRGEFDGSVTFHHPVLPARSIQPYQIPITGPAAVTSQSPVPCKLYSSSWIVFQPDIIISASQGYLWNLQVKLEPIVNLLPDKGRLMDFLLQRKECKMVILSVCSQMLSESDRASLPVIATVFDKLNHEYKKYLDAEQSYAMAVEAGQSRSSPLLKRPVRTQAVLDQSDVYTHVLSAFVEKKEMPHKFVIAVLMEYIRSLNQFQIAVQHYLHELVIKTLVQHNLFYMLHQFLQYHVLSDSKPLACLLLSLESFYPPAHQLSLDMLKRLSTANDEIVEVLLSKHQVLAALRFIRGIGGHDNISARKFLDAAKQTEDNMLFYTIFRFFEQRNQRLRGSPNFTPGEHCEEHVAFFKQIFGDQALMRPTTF
Described as above.

From paper doi:10.1101/2025.02.07.636106 come the findings set out here.

No constants are given. Whether binding was seen depends on the method and setting. For some of these results: Binding seen in cells or lysates may run through a third protein. Some entries that bind do so weakly or less than the wild type.

B1: FLOT1 (protein, UniProt O75955 1-427)
chain: MFFTCGPNEAMVVSGFCRSPPVMVAGGRVFVLPCIQQIQRISLNTLTLNVKSEKVYTRHGVPISVTGIAQVKIQGQNKEMLAAACQMFLGKTEAEIAHIALETLEGHQRAIMAHMTVEEIYKDRQKFSEQVFKVASSDLVNMGISVVSYTLKDIHDDQDYLHSLGKARTAQVQKDARIGEAEAKRDAGIREAKAKQEKVSAQYLSEIEMAKAQRDYELKKAAYDIEVNTRRAQADLAYQLQVAKTKQQIEEQRVQVQVVERAQQVAVQEQEIARREKELEARVRKPAEAERYKLERLAEAEKSQLIMQAEAEAASVRMRGEAEAFAIGARARAEAEQMAKKAEAFQLYQEAAQLDMLLEKLPQVAEEISGPLTSANKITLVSSGSGTMGAAKVTGEVLDILTRLPESVERLTGVSISQVNHKPLRTA
With B1, the binding entry in assay [1] is listed as “binds”.

B2: TMEM230 (protein, UniProt Q96A57 1-120)
chain: MMPSRTNLATGIPSSKVKYSRLSSTDDGYIDLQFKKTPPKIPYKAIALATVLFLIGAFLIIIGSLLLSGYISKGGADRAVPVLIIGILVFLPGFYHLRIAYYASKGYRGYSYDDIPDFDD
For the molecule B2, the binding result in assay [2], in assay [3] and in assay [4] was “binds” in each case.

B3: OSTM1 (protein, UniProt Q86WC4 32-334)
chain: ALPFGSSPHRVFHDLLSEQQLLEVEDLSLSLLQGGGLGPLSLPPDLPDLDPECRELLLDFANSSAELTGCLVRSARPVRLCQTCYPLFQQVVSKMDNISRAAGNTSESQSCARSLLMADRMQIVVILSEFFNTTWQEANCANCLTNNSEELSNSTVYFLNLFNHTLTCFEHNLQGNAHSLLQTKNYSEVCKNCREAYKTLSSLYSEMQKMNELENKAEPGTHLCIDVEDAMNITRKLWSRTFNCSVPCSDTVPVIAVSVFILFLPVVFYLSSFLHSEQKKRKLILPKRLKSSTSFANIQENSN
As to B3, the binding entry in assay [5] is given as “binds”.

B4: AP1S2 (protein, UniProt P56377 1-157)
chain: MQFMLLFSRQGKLRLQKWYVPLSDKEKKKITRELVQTVLARKPKMCSFLEWRDLKIVYKRYASLYFCCAIEDQDNELITLEIIHRYVELLDKYFGSVCELDIIFNFEKAYFILDEFLLGGEVQETSKKNVLKAIEQADLLQEEAETPRSVLEEIGLT
Regarding B4, the binding result in assay [6] is given as “binds”.

B5: CLCN7 (protein, UniProt P51798 1-805)
chain: T4 sequence
Consider B5, for which, in assay [7], the binding entry is “binds”.
